Test results published in patent US8546530 (dated 2013).
The star is where a group is joined. Cbz = O=C(OCc1ccccc1)*; OtBu = CC(C)(C)O*

Assay: general procedure: solution-phase peptide synthesis; pivaloyl chloride/pyridine; EDC.HCl/HOOBt; IBCF/NMM; HBTU/DIPEA (amine fragments)
Conditions: coupling step, HCl

Substance | step yield
Z-Ser-Tyr-(D)Cit-Leu-Arg-Pro-(D)AlaNH2.HCl | at least 70% in weight
Fmoc-His(Trt)-Trp-Ser-Tyr-(D)Ser(tBu)-Leu-Arg-Pro-NHNHCONH2 | at least 70% in weight
Cbz-D(OtBu)AFIGL-OH | at least 70% in weight
Boc-Cys(Trt)-Ser(tBu)-Asn-Leu-Ser(tBu)-Thr-Cys(Trt) Val Leu Gly OH | at least 75% in weight
Ac-(D)Nal-(D)Cph-(D)Pal-Ser-Tyr-(D)Cit-Leu-Arg-Pro-(D)Ala-NH2.HCl | at least 70% in weight
